Data as given in publication PMC4269415 (PLoS ONE, 2014).

Assay: peptide made by a vendor
Conditions: whole synthesis, purity and molecular weight confirmed by MALDI-TOF MS, pone-0114614-g001

Substance | final HPLC purity [%]
GGLRSLGRKILRAWKKYGPIIVPIIRIG [L-BMAP-28] | 95.61
GGLRSLGRKILRAWKKYGPIIVPIIRIG [D-BMAP-28] | 96.67
GGLRSLGRKILRAWKKYGPIIVPIIRIG [RI-BMAP-28] | 95.62

Assay: peptide made by a vendor (peptide synthesis; Rink amide resin)
Conditions: whole synthesis, purity and molecular weight confirmed by MALDI-TOF MS, pone-0114614-g003

Substance | final HPLC purity [%]
GGLRSLGRKILRAWKKYGPIIVPIIRI-NH2 [D-BMAP-28-NH2] | 95.35
GGLRSLGRKILRAWKKYGPIIVPIIRI-NH2 [L-BMAP-28-NH2] | 95.64
GGLRSLGRKILRAWKKYGPIIVPIIRI-NH2 [RI-BMAP-28-NH2] | 95.85
